Earlier results on one compound are cited in patent publication US11779563B2, “Oral cannabinoid pharmaceutical compositions and methods of treating sleep disorders” (Curio IP, LLC, priority 2021, dated 2023).

The conditions of this data set: smoking route (Huestis 2007).

For `CCCCCc1cc(O)c2c(c1)OC(C)(C)[C@@H]1CCC(C)=C[C@@H]21` [THC, (−)-(6aR,10aR)-6,6,9-trimethyl-3-pentyl-6a,7,8,10a-tetrahydro-6H-benzo[c]chromen-1-ol], the Bioavailability is 2-56%.
